Test results from patent US20120184517A1, “TREATMENT OF DISEASES WITH ALTERED SMOOTH MUSCLE CONTRACTILITY” (priority 2009, published 2012).
For at least one compound, name, drawing or mass did not settle the structure.

Tested on: membrane potential of tracheal smooth muscle cells
Test: Membrane potential measurement in tracheal smooth muscle cells
Assay type: cell-based, mice
Conditions: paxilline (10 μM)
Protocol: In this experiment, murine tracheal smooth muscle cells were acutely isolated and whole cell patch clamped as previously described (Zakharov, S. et al., (2005) J Biol Chem 280, 30882-30887).
The membrane potential was recorded using perforated patch clamp technique.

CC(C)(O)[C@H]1O[C@H]2CC[C@@]3(C)[C@@](O)(CC[C@H]4Cc5c([nH]c6ccccc56)[C@@]43C)C2=CC1=O [paxilline, reference compound]
reversal of rottlerin hyperpolarization: completely reversed
